Test results as given in publication PMC6393709.
These are yes or no findings as the source states them, for the method shown. In cells and extracts the contact can be indirect. Some results given as binding are weak or reduced against the parent protein; the word gives no strength.

The chains behind the UniProt entries cited, without tags or fusion partners.
UniProt P09874: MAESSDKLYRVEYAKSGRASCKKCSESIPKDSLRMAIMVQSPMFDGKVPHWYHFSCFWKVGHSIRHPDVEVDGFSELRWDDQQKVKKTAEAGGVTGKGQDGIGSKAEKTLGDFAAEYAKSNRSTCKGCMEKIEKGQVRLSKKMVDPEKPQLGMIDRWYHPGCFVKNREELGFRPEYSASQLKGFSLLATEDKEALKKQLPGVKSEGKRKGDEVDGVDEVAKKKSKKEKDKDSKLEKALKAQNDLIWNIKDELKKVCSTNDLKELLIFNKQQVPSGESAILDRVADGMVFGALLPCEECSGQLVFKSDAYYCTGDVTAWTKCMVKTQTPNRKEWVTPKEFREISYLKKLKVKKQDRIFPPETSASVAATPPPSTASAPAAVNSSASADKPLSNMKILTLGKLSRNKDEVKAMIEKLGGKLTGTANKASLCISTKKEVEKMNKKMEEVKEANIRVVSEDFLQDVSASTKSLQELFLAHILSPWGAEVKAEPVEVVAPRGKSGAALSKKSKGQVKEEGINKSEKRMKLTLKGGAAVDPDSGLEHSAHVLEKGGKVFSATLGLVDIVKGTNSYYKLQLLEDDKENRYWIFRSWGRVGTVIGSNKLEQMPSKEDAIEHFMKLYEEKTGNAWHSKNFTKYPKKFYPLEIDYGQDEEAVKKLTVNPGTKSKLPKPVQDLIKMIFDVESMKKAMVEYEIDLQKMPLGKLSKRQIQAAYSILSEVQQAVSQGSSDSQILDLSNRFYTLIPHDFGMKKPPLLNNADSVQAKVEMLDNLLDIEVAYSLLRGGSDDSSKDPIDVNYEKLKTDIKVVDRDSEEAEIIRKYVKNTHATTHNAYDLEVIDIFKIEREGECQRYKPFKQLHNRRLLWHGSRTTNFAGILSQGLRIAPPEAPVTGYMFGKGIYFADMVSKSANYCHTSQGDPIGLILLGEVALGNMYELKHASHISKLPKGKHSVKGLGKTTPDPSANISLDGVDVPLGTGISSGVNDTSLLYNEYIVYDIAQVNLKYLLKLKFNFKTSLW
UniProt Q13136: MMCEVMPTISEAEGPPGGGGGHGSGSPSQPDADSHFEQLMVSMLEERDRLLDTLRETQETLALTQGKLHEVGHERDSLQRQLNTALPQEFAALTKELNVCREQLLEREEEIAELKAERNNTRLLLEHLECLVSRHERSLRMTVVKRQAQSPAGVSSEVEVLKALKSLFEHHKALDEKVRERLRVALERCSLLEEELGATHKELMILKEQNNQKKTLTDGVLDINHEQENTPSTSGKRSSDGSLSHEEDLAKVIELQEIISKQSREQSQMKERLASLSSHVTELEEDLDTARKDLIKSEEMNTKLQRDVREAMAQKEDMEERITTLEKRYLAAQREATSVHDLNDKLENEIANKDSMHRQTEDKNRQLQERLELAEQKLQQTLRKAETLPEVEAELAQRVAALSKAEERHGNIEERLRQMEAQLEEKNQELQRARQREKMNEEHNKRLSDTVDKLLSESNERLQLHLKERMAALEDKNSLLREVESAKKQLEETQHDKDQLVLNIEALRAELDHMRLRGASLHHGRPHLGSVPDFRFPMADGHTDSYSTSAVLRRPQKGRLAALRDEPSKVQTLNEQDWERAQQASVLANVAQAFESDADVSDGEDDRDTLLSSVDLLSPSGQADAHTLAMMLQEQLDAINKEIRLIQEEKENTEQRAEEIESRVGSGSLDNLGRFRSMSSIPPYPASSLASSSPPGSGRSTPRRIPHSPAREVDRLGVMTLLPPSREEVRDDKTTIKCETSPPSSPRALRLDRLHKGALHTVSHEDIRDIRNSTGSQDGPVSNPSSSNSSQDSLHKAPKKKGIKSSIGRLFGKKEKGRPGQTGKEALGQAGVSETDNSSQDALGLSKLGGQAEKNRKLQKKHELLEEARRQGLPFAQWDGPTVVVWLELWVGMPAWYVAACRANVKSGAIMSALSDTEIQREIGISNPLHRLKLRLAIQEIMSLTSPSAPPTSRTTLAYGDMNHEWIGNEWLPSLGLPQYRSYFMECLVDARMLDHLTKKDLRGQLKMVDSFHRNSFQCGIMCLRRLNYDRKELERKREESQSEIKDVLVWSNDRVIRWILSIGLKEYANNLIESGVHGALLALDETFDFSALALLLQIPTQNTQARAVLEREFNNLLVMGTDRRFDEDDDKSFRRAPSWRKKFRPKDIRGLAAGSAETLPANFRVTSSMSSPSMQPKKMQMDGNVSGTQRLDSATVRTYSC
UniProt P00519: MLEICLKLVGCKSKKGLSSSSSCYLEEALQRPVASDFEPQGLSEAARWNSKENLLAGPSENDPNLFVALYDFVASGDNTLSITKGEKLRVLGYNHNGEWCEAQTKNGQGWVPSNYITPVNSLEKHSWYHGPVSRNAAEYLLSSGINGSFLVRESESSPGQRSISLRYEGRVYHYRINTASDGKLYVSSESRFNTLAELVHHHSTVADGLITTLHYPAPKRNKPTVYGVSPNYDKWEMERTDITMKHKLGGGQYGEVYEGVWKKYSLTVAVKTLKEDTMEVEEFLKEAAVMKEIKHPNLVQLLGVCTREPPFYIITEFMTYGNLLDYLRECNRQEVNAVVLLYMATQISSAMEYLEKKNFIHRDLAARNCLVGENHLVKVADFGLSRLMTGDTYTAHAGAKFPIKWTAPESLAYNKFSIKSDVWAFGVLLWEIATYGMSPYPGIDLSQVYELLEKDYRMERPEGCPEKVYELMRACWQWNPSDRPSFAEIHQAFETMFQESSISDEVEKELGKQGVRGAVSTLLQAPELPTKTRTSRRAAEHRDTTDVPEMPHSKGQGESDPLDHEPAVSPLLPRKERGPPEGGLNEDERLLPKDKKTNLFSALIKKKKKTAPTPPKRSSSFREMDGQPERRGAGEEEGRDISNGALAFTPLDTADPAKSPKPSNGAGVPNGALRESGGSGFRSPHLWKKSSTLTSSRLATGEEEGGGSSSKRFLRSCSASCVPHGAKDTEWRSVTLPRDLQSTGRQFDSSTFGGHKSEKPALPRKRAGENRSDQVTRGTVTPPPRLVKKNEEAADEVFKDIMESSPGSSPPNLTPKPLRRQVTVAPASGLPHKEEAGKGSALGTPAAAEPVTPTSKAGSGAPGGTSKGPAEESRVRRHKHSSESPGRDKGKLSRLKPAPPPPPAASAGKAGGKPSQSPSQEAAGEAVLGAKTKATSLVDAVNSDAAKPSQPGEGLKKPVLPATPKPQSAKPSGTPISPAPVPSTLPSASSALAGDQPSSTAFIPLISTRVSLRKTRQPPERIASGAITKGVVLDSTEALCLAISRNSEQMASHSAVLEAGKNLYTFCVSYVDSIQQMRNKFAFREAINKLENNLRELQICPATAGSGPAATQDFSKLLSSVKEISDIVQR

Columns and labels:
Assay in all cases: co-IP; clarified cell lysates with 1 μg of antibody and protein G plus/protein A-agarose overnight at 4°C (or FLAG affinity purification); western blot
[1] = biological target: PARP1 (human (endogenous in K562)) (UniProt P09874)
[2] = biological target: 3-FLAG-PPFIA1 (protein tyrosine phosphatase, receptor type, f polypeptide (PTPRF), leukocyte common antigen (LAR) interacting protein (liprin), alpha 1) (UniProt Q13136)
ABL1 = ABL1 (UniProt P00519)

binding [1] | binding [2] | binding (ABL1) | Substance
binds | – | – | ABL1 (from UniProt P00519 1-1130)
– | binds | binds | PARP1 (from UniProt P09874 1-1014)
binds | – | – | PPFIA1 (detected with anti-PPFIA1 in PARP1 immunoprecipitates) (from UniProt Q13136 1-1202)
